The chains behind the UniProt entries cited, without tags or fusion partners.
UniProt Q9UQE7: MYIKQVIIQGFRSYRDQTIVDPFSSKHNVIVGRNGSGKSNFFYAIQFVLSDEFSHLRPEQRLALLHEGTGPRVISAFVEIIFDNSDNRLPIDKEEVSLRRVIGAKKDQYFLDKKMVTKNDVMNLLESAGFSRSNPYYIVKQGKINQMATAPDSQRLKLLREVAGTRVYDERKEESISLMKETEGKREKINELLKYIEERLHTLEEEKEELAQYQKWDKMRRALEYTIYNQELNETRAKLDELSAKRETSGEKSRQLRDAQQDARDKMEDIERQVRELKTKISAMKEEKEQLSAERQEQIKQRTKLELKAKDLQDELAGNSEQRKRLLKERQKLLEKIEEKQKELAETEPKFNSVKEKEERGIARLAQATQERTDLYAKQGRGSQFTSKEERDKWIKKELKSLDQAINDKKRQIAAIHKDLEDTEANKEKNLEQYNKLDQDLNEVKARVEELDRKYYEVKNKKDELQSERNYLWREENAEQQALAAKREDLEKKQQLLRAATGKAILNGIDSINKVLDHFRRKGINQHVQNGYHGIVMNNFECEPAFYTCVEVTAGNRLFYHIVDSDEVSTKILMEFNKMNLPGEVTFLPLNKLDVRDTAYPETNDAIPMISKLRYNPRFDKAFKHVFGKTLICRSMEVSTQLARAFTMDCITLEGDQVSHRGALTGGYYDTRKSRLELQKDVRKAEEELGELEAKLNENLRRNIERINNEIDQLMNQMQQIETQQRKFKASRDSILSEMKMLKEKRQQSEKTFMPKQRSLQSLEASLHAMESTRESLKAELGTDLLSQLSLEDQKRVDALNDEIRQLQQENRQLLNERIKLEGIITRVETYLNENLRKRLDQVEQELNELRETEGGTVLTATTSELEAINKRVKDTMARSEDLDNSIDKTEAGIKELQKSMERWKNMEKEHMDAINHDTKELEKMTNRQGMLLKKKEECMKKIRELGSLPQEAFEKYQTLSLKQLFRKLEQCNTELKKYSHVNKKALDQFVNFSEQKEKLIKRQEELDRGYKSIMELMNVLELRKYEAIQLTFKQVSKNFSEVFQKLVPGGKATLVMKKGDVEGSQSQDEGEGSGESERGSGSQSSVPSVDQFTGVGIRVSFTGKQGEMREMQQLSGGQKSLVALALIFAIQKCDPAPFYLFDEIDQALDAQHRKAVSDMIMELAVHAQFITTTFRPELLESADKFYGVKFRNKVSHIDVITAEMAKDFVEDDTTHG
UniProt O60216: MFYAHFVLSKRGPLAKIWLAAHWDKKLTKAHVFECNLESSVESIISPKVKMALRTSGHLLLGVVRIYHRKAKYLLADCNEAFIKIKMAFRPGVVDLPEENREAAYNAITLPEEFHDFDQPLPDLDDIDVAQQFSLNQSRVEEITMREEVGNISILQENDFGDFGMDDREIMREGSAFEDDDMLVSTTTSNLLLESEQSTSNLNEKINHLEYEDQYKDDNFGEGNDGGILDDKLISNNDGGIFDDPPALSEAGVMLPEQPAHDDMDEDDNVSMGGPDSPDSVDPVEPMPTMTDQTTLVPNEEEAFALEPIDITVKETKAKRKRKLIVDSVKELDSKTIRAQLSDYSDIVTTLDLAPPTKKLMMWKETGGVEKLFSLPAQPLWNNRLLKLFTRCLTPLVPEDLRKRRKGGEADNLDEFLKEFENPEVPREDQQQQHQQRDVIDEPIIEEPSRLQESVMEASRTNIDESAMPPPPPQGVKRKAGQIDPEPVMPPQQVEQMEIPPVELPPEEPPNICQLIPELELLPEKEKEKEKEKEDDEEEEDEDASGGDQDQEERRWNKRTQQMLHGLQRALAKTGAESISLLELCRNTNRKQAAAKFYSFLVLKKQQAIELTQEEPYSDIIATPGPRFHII

In PMC7948425:

T1: FLAG-streptavidin-binding peptide (FSBP) dual epitope-tagged USP13, from the gene-edited endogenous allele (human (endogenous in HCT116)) (UniProt Q92995)
T1 sequence: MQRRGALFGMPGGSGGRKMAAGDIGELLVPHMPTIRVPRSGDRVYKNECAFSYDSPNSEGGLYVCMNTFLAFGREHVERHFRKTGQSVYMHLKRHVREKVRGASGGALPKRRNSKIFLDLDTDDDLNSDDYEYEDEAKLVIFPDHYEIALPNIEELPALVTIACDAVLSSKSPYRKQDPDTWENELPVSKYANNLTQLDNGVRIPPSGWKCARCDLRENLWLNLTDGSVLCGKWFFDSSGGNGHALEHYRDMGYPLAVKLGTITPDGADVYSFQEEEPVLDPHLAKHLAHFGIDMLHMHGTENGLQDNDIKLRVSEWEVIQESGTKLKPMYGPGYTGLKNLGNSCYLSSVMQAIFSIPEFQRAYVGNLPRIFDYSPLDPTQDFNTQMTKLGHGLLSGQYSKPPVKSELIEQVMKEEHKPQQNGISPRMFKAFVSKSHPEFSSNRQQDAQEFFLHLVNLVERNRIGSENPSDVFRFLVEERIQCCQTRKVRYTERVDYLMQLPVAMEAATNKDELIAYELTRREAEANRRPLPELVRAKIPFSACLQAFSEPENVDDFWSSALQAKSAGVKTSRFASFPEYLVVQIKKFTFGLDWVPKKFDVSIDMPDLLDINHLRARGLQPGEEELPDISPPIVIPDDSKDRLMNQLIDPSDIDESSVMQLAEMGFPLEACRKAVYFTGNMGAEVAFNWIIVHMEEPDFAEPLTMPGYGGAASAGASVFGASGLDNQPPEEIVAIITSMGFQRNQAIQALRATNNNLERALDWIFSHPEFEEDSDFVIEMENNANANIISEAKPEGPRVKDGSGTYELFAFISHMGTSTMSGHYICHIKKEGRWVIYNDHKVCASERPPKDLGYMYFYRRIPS

B1: SMC1A, endogenous (protein, UniProt Q14683 1-1233)
chain: MGFLKLIEIENFKSYKGRQIIGPFQRFTAIIGPNGSGKSNLMDAISFVLGEKTSNLRVKTLRDLIHGAPVGKPAANRAFVSMVYSEEGAEDRTFARVIVGGSSEYKINNKVVQLHEYSEELEKLGILIKARNFLVFQGAVESIAMKNPKERTALFEEISRSGELAQEYDKRKKEMVKAEEDTQFNYHRKKNIAAERKEAKQEKEEADRYQRLKDEVVRAQVQLQLFKLYHNEVEIEKLNKELASKNKEIEKDKKRMDKVEDELKEKKKELGKMMREQQQIEKEIKEKDSELNQKRPQYIKAKENTSHKIKKLEAAKKSLQNAQKHYKKRKGDMDELEKEMLSVEKARQEFEERMEEESQSQGRDLTLEENQVKKYHRLKEEASKRAATLAQELEKFNRDQKADQDRLDLEERKKVETEAKIKQKLREIEENQKRIEKLEEYITTSKQSLEEQKKLEGELTEEVEMAKRRIDEINKELNQVMEQLGDARIDRQESSRQQRKAEIMESIKRLYPGSVYGRLIDLCQPTQKKYQIAVTKVLGKNMDAIIVDSEKTGRDCIQYIKEQRGEPETFLPLDYLEVKPTDEKLRELKGAKLVIDVIRYEPPHIKKALQYACGNALVCDNVEDARRIAFGGHQRHKTVALDGTLFQKSGVISGGASDLKAKARRWDEKAVDKLKEKKERLTEELKEQMKAKRKEAELRQVQSQAHGLQMRLKYSQSDLEQTKTRHLALNLQEKSKLESELANFGPRINDIKRIIQSREREMKDLKEKMNQVEDEVFEEFCREIGVRNIREFEEEKVKRQNEIAKKRLEFENQKTRLGIQLDFEKNQLKEDQDKVHMWEQTVKKDENEIEKLKKEEQRHMKIIDETMAQLQDLKNQHLAKKSEVNDKNHEMEEIRKKLGGANKEMTHLQKEVTAIETKLEQKRSDRHNLLQACKMQDIKLPLSKGTMDDISQEEGSSQGEDSVSGSQRISSIYAREALIEIDYGDLCEDLKDAQAEEEIKQEMNTLQQKLNEQQSVLQRIAAPNMKAMEKLESVRDKFQETSDEFEAARKRAKKAKQAFEQIKKERFDRFNACFESVATNIDEIYKALSRNSSAQAFLGPENPEEPYLDGINYNCVAPGKRFRPMDNLSGGEKTVAALALLFAIHSYKPAPFFVLDEIDAALDNTNIGKVANYIKEQSTCNFQAIVISLKEEFYTKAESLIGVYPEQGDCVISKVLTFDLTKYPDANPNPNEQ
B2: WAPL, endogenous (protein, UniProt Q7Z5K2 1-1190)
chain: MTSRFGKTYSRKGGNGSSKFDEVFSNKRTTLSTKWGETTFMAKLGQKRPNFKPDIQEIPKKPKVEEESTGDPFGFDSDDESLPVSSKNLAQVKCSSYSESSEAAQLEEVTSVLEANSKISHVVVEDTVVSDKCFPLEDTLLGKEKSTNRIVEDDASISSCNKLITSDKVENFHEEHEKNSHHIHKNADDSTKKPNAETTVASEIKETNDTWNSQFGKRPESPSEISPIKGSVRTGLFEWDNDFEDIRSEDCILSLDSDPLLEMKDDDFKNRLENLNEAIEEDIVQSVLRPTNCRTYCRANKTKSSQGASNFDKLMDGTSQALAKANSESSKDGLNQAKKGGVSCGTSFRGTVGRTRDYTVLHPSCLSVCNVTIQDTMERSMDEFTASTPADLGEAGRLRKKADIATSKTTTRFRPSNTKSKKDVKLEFFGFEDHETGGDEGGSGSSNYKIKYFGFDDLSESEDDEDDDCQVERKTSKKRTKTAPSPSLQPPPESNDNSQDSQSGTNNAENLDFTEDLPGVPESVKKPINKQGDKSKENTRKIFSGPKRSPTKAVYNARHWNHPDSEELPGPPVVKPQSVTVRLSSKEPNQKDDGVFKAPAPPSKVIKTVTIPTQPYQDIVTALKCRREDKELYTVVQHVKHFNDVVEFGENQEFTDDIEYLLSGLKSTQPLNTRCLSVISLATKCAMPSFRMHLRAHGMVAMVFKTLDDSQHHQNLSLCTAALMYILSRDRLNMDLDRASLDLMIRLLELEQDASSAKLLNEKDMNKIKEKIRRLCETVHNKHLDLENITTGHLAMETLLSLTSKRAGDWFKEELRLLGGLDHIVDKVKECVDHLSRDEDEEKLVASLWGAERCLRVLESVTVHNPENQSYLIAYKDSQLIVSSAKALQHCEELIQQYNRAEDSICLADSKPLPHQNVTNHVGKAVEDCMRAIIGVLLNLTNDNEWGSTKTGEQDGLIGTALNCVLQVPKYLPQEQRFDIRVLGLGLLINLVEYSARNRHCLVNMETSCSFDSSICSGEGDDSLRIGGQVHAVQALVQLFLERERAAQLAESKTDELIKDAPTTQHDKSGEWQETSGEIQWVSTEKTDGTEEKHKKEEEDEELDLNKALQHAGKHMEDCIVASYTALLLGCLCQESPINVTTVREYLPEGDFSIMTEMLKKFLSFMNLTCAVGTTGQKSISRVIEYLEHC
B3: PDS5A, endogenous (protein, UniProt Q29RF7 1-1337)
chain: MDFTAQPKPATALCGVVSADGKIAYPPGVKEITDKITTDEMIKRLKMVVKTFMDMDQDSEDEKQQYLPLALHLASEFFLRNPNKDVRLLVACCLADIFRIYAPEAPYTSHDKLKDIFLFITRQLKGLEDTKSPQFNRYFYLLENLAWVKSYNICFELEDCNEIFIQLFRTLFSVINNSHNKKVQMHMLDLMSSIIMEGDGVTQELLDSILINLIPAHKNLNKQSFDLAKVLLKRTVQTIEACIANFFNQVLVLGRSSVSDLSEHVFDLIQELFAIDPHLLLSVMPQLEFKLKSNDGEERLAVVRLLAKLFGSKDSDLATQNRPLWQCFLGRFNDIHVPVRLESVKFASHCLMNHPDLAKDLTEYLKVRSHDPEEAIRHDVIVTIITAAKRDLALVNDQLLGFVRERTLDKRWRVRKEAMMGLAQLYKKYCLHGEAGKEAAEKVSWIKDKLLHIYYQNSIDDKLLVEKIFAQYLVPHNLETEERMKCLYYLYASLDPNAVKALNEMWKCQNMLRSHVRELLDLHKQPTSEANCSAMFGKLMTIAKNLPDPGKAQDFVKKFNQVLGDDEKLRSQLELLISPTCSCKQADICVREIARKLANPKQPTNPFLEMVKFLLERIAPVHIDSEAISALVKLMNKSIEGTADDEEEGVSPDTAIRSGLELLKVLSFTHPTSFHSAETYESLLQCLRMEDDKVAEAAIQIFRNTGHKIETDLPQIRSTLIPILHQKAKRGTPHQAKQAVHCIHAIFTNKEVQLAQIFEPLSRSLNADVPEQLITPLVSLGHISMLAPDQFASPMKSVVANFIVKDLLMNDRSTGEKNGKLWSPDEEVSPEVLAKVQAIKLLVRWLLGMKNNQSKSANSTLRLLSAMLVSEGDLTEQKRISKSDMSRLRLAAGSAIMKLAQEPCYHEIITPEQFQLCALVINDECYQVRQIFAQKLHKALVKLLLPLEYMAIFALCAKDPVKERRAHARQCLLKNISIRREYIKQNPMATEKLLSLLPEYVVPYMIHLLAHDPDFTRSQDVDQLRDIKECLWFMLEVLMTKNENNSHAFMKKMAENIKLTRDAQSPDESKTNEKLYTVCDVALCVINSKSALCNADSPKDPVLPMKFFTQPEKDFCNDKSYISEETRVLLLTGKPKPAGVLGAVNKPLSATGRKPYVRSTGTETGSNINVNSELNPSTGNRSREQSSEAAETGVSENEENPVRIISVTPVKNIDPVKNKEINSDQATQGNISSDRGKKRTVTAAGAENIQQKTDEKVDESGPPAPSKPRRGRRPKSESQGNATKNDDLNKPINKGRKRAAVGQESPGGLEAGNAKAPKLQDLAKKAAPAERQIDLQR
B4: HNRNPM, endogenous (protein, UniProt P52272 1-730)
chain: MAAGVEAAAEVAATEIKMEEESGAPGVPSGNGAPGPKGEGERPAQNEKRKEKNIKRGGNRFEPYANPTKRYRAFITNIPFDVKWQSLKDLVKEKVGEVTYVELLMDAEGKSRGCAVVEFKMEESMKKAAEVLNKHSLSGRPLKVKEDPDGEHARRAMQKVMATTGGMGMGPGGPGMITIPPSILNNPNIPNEIIHALQAGRLGSTVFVANLDYKVGWKKLKEVFSMAGVVVRADILEDKDGKSRGIGTVTFEQSIEAVQAISMFNGQLLFDRPMHVKMDERALPKGDFFPPERPQQLPHGLGGIGMGLGPGGQPIDANHLNKGIGMGNIGPAGMGMEGIGFGINKMGGMEGPFGGGMENMGRFGSGMNMGRINEILSNALKRGEIIAKQGGGGGGGSVPGIERMGPGIDRLGGAGMERMGAGLGHGMDRVGSEIERMGLVMDRMGSVERMGSGIERMGPLGLDHMASSIERMGQTMERIGSGVERMGAGMGFGLERMAAPIDRVGQTIERMGSGVERMGPAIERMGLSMERMVPAGMGAGLERMGPVMDRMATGLERMGANNLERMGLERMGANSLERMGLERMGANSLERMGPAMGPALGAGIERMGLAMGGGGGASFDRAIEMERGNFGGSFAGSFGGAGGHAPGVARKACQIFVRNLPFDFTWKMLKDKFNECGHVLYADIKMENGKSKGCGVVKFESPEVAERACRMMNGMKLSGREIDVRIDRNA

molecular target: T1, FLAG-streptavidin-binding peptide (FSBP) dual epitope-tagged USP13, from the gene-edited endogenous allele (human (endogenous in HCT116)); experiment: affinity purification with mass spectrometry; dual-affinity purification (FLAG M2 beads, FLAG peptide elution, then streptavidin resin, biotin elution; TBS 150 mM NaCl) of FSBP-USP13 from 60 mg HCT116 nuclear extract, parental cells as control, GeLC-MS/MS

binding | Molecule
binds | SMC3, endogenous (from UniProt Q9UQE7 1-1217)
binds | RAD21, endogenous (from UniProt O60216 1-631)
binds | B1
binds | B2
binds | B3
binds | B4

No constants are given. Whether binding was seen depends on the method and setting. In cells and extracts the contact can be indirect. Here binding means that the protein was enriched with, or labelled near, the bait; the list need not be complete. Sequences can lack the tags named with a protein.
